Literature values in patent US20080051430A1, “Acylated Piperidine Derivatives as Melanocortin 4-Receptor Agonists” (priority 2004, published 2008).
Some of these results come from one statement about several compounds together. Some ranges recur; such a range may be that of the whole group of compounds.

Details: drug compared to placebo

Which weight loss does the source give for `CCCCCCCCCCC[C@@H](C[C@@H]1OC(=O)[C@H]1CCCCCC)OC(=O)[C@H](CC(C)C)NC=O` [orlistat] here?
The weight loss was 5%-10%.
